# Measured values taken from paper PMC7862700.
# Only a part is listed here, and it is no random draw. At the low end of the ranking, values are background and their order means little.
# Biological target: SPI1 (UniProt P17947)
# Assay: DAPPL (digital affinity profiling via proximity ligation, sequencing)
# Conditions: 10 mM Tris-HCl pH 7.5, 50 mM NaCl, 1 mM DTT, 4% glycerol, room temperature, 30 min; GST-TFs on glutathione beads, 16-mer random dsDNA library, 0.1% …; high values mean tight binding; double strand, one strand shown; scale: fold enrichment (6-mer frequency, TF over GST control)
row,Sequence,binding signal
1,AAGGCA,0.96
2,TTTCAT,1.14
3,AATTCT,1.27
4,TTGGGA,0.978
5,GACTCG,0.865
6,TCATTG,0.965
7,AATCTG,1.42
8,AAGGTT,0.952
9,CTAGGG,0.881
10,GTAATG,0.996
11,GAATAG,0.978
12,GACTGC,0.911
13,AGCGCC,0.99
14,GACCCA,0.851
15,TTATAT,1.32
16,GGCAAT,0.887
17,ACGAAG,0.897
18,AAGCCG,0.879
19,TCCGCC,1.48
20,GGTTGT,0.82

# Two records drawn at random from the list so far, as already listed:
row,Sequence,binding signal
14,GACCCA,0.851
8,AAGGTT,0.952

# More entries follow.

row,Sequence,binding signal
1,AGATCA,0.79
2,GCGCCC,0.997
3,GTGTTG,0.842
4,GACTAC,1.12
5,GTAGAA,1.01
6,AGAAAC,0.975
7,TAGATC,0.942
8,CCTAAT,1.34
9,TGTACG,1.19
10,GCGTTA,0.96
11,GGTTAC,0.947
12,TCCCCC,1.46
13,ACGTCA,0.971
14,TCTATC,1.22
15,AGATGG,0.798
16,CACTCA,1.08
17,TAACGT,1.03
18,CCTTGC,1.27
19,ACCCTC,1.12
